Results are given in words; binding and its absence hold for the method and conditions named. Some binding calls cover weakened binding; strength is not graded here. Sequences can lack the tags named with a protein.
Biological target: BSA-Man (glycoprotein bearing 12 glycosylated sites) (bovine (from the name BSA)), P02769
Assay: SPR
Details: remark: other sources report otherwise

B1: DC-SIGN ECD (construct without StreptagII), Q9NNX6 59-404 (domain or fragment)
chain: QVSKVPSSISQEQSRQDAIYQNLTQLKAAVGELSEKSKLQEIYQELTQLKAAVGELPEKSKLQEIYQELTRLKAAVGELPEKSKLQEIYQELTWLKAAVGELPEKSKMQEIYQELTRLKAAVGELPEKSKQQEIYQELTRLKAAVGELPEKSKQQEIYQELTRLKAAVGELPEKSKQQEIYQELTQLKAAVERLCHPCPWEWTFFQGNCYFMSNSQRNWHDSITACKEVGAQLVVIKSAEEQNFLQLQSSRSNRFTWMGLSDLNQEGTWQWVDGSPLLPSFKQYWNRGEPNNVGEEDCAEFSGNGWNDDKCNLAKFWICKKSAASCSRDEEQFLSPAPATPNPPPA
modifications: here or on the partner: 12 glycosylated sites (mannose glycans, up to 12 glycans displayed)
  binding: binds
